Here are results for two molecules from paper PMC10679541.

These are yes or no findings as the source states them, for the method shown. In cells and extracts the contact can be indirect. Some binding calls cover weakened binding; strength is not graded here. Tags and fused reporters may be left off the sequences shown.

For assay [1], the target named is T1, STAG1 with a C-terminal NeonGreen-v5-FKBP tag (SA1^NG-FKBP) (mouse (endogenous in mESCs)) (UniProt Q9D3E6).
T1 sequence: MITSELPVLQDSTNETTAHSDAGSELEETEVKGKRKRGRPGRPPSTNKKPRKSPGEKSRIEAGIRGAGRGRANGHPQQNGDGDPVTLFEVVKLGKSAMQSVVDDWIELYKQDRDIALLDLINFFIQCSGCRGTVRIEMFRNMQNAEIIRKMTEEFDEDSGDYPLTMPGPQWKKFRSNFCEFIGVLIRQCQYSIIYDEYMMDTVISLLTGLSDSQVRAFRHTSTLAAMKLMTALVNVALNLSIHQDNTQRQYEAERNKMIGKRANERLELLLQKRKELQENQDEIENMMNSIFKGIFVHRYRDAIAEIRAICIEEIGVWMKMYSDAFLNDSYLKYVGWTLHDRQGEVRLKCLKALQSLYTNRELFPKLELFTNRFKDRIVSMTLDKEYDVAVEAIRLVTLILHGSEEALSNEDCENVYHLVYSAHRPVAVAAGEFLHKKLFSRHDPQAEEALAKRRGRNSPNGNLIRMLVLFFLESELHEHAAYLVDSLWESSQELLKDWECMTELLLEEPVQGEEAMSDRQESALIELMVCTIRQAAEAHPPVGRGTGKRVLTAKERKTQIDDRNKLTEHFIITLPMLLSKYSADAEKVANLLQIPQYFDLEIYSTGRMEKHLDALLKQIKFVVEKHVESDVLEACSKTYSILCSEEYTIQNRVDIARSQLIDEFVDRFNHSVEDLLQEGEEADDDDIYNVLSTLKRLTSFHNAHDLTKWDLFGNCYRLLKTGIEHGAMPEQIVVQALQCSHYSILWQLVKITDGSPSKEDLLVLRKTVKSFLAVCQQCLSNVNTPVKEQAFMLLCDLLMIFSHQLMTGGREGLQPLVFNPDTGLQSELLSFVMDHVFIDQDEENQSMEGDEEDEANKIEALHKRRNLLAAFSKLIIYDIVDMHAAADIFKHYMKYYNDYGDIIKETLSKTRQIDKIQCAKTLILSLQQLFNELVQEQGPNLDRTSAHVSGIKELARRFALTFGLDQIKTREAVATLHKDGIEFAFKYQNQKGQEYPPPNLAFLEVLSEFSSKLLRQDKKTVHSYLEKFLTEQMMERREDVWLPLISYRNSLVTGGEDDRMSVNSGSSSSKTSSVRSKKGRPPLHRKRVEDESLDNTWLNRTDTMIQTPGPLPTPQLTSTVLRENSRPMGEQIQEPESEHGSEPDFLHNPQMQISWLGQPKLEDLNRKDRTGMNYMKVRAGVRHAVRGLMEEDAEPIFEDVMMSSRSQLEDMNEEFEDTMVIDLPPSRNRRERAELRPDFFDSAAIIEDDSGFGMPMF
In words: co-IP; immunoprecipitation from chromatin with an N-terminal Stag1 antibody (Ab4455) in SA1^NG-FKBP mESCs treated with DMSO or dTAG, western blot for RAD21, SMC3 and NCL. (In general: In western blotting, separated proteins are transferred to a membrane and probed.)

For assay [2], the target named is T2, STAG1 with a C-terminal NeonGreen-v5-FKBP tag (SA1^NG-FKBP) (mouse (endogenous in mESCs)), Q9D3E6.
T2 chain: T1 sequence
The description is as above. Conditions: remark: other sources report otherwise.

B1: RAD21 (protein, UniProt Q61550 1-635)
chain: MFYAHFVLSKRGPLAKIWLAAHWDKKLTKAHVFECNLESSVESIISPKVKMALRTSGHLLLGVVRIYHRKAKYLLADCNEAFIKIKMAFRPGVVDLPEENREAAYNAITLPEEFHDFDQPLPDLDDIDVAQQFSLNQSRVEEITMREEVGNISILQENDFGDFGMDDREIMREGSAFEDDDMLVSTSASNLLLEPEQSTSNLNEKMNHLEYEDQYKDDNFGEGNDGGILDDKLISNNDGGIFDDPPALSEAGVMLPEQPAHDDMDEDDNGSLGGPDSPDSVDPVEPMPTMTDQTTLVPNEEEAFALEPIDITVKETKAKRKRKLIVDSVKELDSKTIRAQLSDYSDIVTTLDLAPPTKKLMMWKETGGVEKLFFLPAQPLWNNRLLKLFTRCLTPLVPEDLRKRRKGGEADNLDEFLKEFENPEVPREEQQPQQQQPQPQRDVIDEPIIEEPSRLQDSVMEASRTTIEESAMPPPPPQGVKRKAGQIDPEPSIPPQQVEQMEIPPVELPPEEPPNICQLIPELELLPEKEKEKEKEKEEEEEEEDEDASGGDQDQEERRWNKRTQQMLHGLQRALAKTGAESISLLELCRNTNRKQAAAKFYSFLVLKKQQAIELTQEEPYSDIIATPGPRFHII
B1: the binding result in assay [1] is reported as “binds”.

B2: SMC3, Q9CW03 1-1217 (protein)
chain: MYIKQVIIQGFRSYRDQTIVDPFSSKHNVIVGRNGSGKSNFFYAIQFVLSDEFSHLRPEQRLALLHEGTGPRVISAFVEIIFDNSDNRLPIDKEEVSLRRVIGAKKDQYFLDKKMVTKNDVMNLLESAGFSRSNPYYIVKQGKINQMATAPDSQRLKLLREVAGTRVYDERKEESISLMKETEGKREKINELLKYIEERLHTLEEEKEELAQYQKWDKMRRALEYTIYNQELNETRAKLDELSAKRETSGEKSRQLRDAQQDARDKMEDIERQVRELKTKISAMKEEKEQLSAERQEQIKQRTKLELKAKDLQDELAGNSEQRKRLLKERQKLLEKIEEKQKELAETEPKFNSVKEKEERGIARLAQATQERTDLYAKQGRGSQFTSKEERDKWIKKELKSLDQAINDKKRQIAAIHKDLEDTEANKEKNLEQYNKLDQDLNEVKARVEELDRKYYEVKNKKDELQSERNYLWREENAEQQALAAKREDLEKKQQLLRAATGKAILNGIDSINKVLEHFRRKGINQHVQNGYHGIVMNNFECEPAFYTCVEVTAGNRLFYHIVDSDEVSTKILMEFNKMNLPGEVTFLPLNKLDVRDTAYPETNDAIPMISKLRYNPRFDKAFKHVFGKTLICRSMEVSTQLARAFTMDCITLEGDQVSHRGALTGGYYDTRKSRLELQKDVRKAEEELGELEAKLNENLRRNIERINNEIDQLMNQMQQIETQQRKFKASRDSILSEMKMLKEKRQQSEKTFMPKQRSLQSLEASLHAMESTRESLKAELGTDLLSQLSLEDQKRVDALNDEIRQLQQENRQLLNERIKLEGIITRVETYLNENLRKRLDQVEQELNELRETEGGTVLTATTSELEAINKRVKDTMARSEDLDNSIDKTEAGIKELQKSMERWKNMEKEHMDAINHDTKELEKMTNRQGMLLKKKEECMKKIRELGSLPQEAFEKYQTLSLKQLFRKLEQCNTELKKYSHVNKKALDQFVNFSEQKEKLIKRQEELDRGYKSIMELMNVLELRKYEAIQLTFKQVSKNFSEVFQKLVPGGKATLVMKKGDVEGSQSQDEGEGSGESERGSGSQSSVPSVDQFTGVGIRVSFTGKQGEMREMQQLSGGQKSLVALALIFAIQKCDPAPFYLFDEIDQALDAQHRKAVSDMIMELAVHAQFITTTFRPELLESADKFYGVKFRNKVSHIDVITAEMAKDFVEDDTTHG
As to B2, in assay [2], the binding entry was “binds”.
